Measurements taken from publication PMC7819943, “Rice protein-binding microarrays: a tool to detect cis-acting elements near promoter regions in rice”.
The other results are listed elsewhere or left out.

Protein sequences, listed by entry. Tags and fused reporters are not part of them.
UniProt Q0JBA9, entry or part of it: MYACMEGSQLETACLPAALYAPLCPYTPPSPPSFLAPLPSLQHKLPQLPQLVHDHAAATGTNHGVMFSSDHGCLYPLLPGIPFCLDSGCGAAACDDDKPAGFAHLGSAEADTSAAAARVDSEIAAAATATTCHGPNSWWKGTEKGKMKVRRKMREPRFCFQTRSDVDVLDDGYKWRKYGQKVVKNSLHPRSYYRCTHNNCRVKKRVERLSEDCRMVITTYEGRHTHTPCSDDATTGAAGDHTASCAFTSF

target: OsWRKY34 (Oryza sativa, UniProt Q0JBA9 1-250); experiment: protein-binding microarray (RPBM); PBS, 2% BSA, 51.3 ng/ul salmon testes DNA, 50 uM zinc acetate, 200 nM TF, 25 C, 1 h; high values mean tight binding; conditions: protein: recombinant; tags: N-terminal polyhistidine and DsRed monomer fusion (pET32a); label: CyDye5-dUTP incorporated in the synthesized complementary strand; 3' TTTTT single-stranded linker to array surface; dsDNA, one strand shown
How it was run: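 A custom Agilent array was converted to double-stranded form by primer extension with Cy5-dUTP and blocked with 2% BSA. Protein at 200 nM in PBS with 2% BSA, salmon testes DNA and 50 µM zinc acetate was applied for 1 h at 25 °C, followed by washing. The proteins were polyhistidine–DsRed N-terminal fusions of transcription factors, expressed in E. coli BL21-CodonPlus and Ni–NTA-purified. The binding signal is per-feature fluorescence intensity (arbitrary units) from an Axon 4000B scanner.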

| Sequence | binding signal |
| --- | --- |
| ATATAGATGGTAATGGGGTACAAATGCTTCACACTGAAAACGGAGTCACCTAGTGCAG | 8270 fluorescence intensity (a.u.) |
| CGCCTCGTTCCGTCGCCCGCCCTGCTCCACCGGCCGGCTACGGAGTCACCTAGTGCAG | 9790 fluorescence intensity (a.u.) |
| CAGCCCATGTTTTATCTGTTTTTTTAGTGTGTTGGCCCAGCGGAGTCACCTAGTGCAG | 8290 fluorescence intensity (a.u.) |
| CGCCATGATCTCGCTCGCCACCACCCGCCTCTCATGGACTCGGAGTCACCTAGTGCAG | 9800 fluorescence intensity (a.u.) |
| ATTTTCAGGCAGCTCACCTGGTCGACTTCCACACCGCATCCGGAGTCACCTAGTGCAG | 11400 fluorescence intensity (a.u.) |
| AAAACCCTCCACGTCAGCATATCAACATCCAGGCCCAACGCGGAGTCACCTAGTGCAG | 8670 fluorescence intensity (a.u.) |
| TACATACATACATACATACATACATATATATATATATATACGGAGTCACCTAGTGCAG | 8200 fluorescence intensity (a.u.) |
| ACCCTCATCCATACTGCCATCACCTCTTCATCCTGCATACCGGAGTCACCTAGTGCAG | 14000 fluorescence intensity (a.u.) |
| TCTGATGGCGCGCACCACGGACGTCTTCATCGCCACCTTCCGGAGTCACCTAGTGCAG | 9700 fluorescence intensity (a.u.) |
| CCTCTCATTGTCATGTATTCTACTTTTACTTGTGAGGGGTCGGAGTCACCTAGTGCAG | 10100 fluorescence intensity (a.u.) |
| TGCACTCTTGAGCACTCCCAATTTTGTCATTGCCATACAACGGAGTCACCTAGTGCAG | 11600 fluorescence intensity (a.u.) |
| ACATATTGGTCGCATTGATAGTTTTAATTTTTTTCTTCTACGGAGTCACCTAGTGCAG | 9560 fluorescence intensity (a.u.) |
| TTTGAGGAAGTTGCATGGTTGAATGTTGGTGGTTGGTTATCGGAGTCACCTAGTGCAG | 8740 fluorescence intensity (a.u.) |
| ACCCACCCAGTCGATTCATGACAGCTCCAGTTATAATTGCCGGAGTCACCTAGTGCAG | 9190 fluorescence intensity (a.u.) |
| CGCCGTCGTCATCATTTGTCAATCAGTGACAGTCACGAGACGGAGTCACCTAGTGCAG | 8410 fluorescence intensity (a.u.) |
| CTGAACCATCCGACTCACCACCGGTATTTCTCGGCCATCTCGGAGTCACCTAGTGCAG | 8640 fluorescence intensity (a.u.) |
| AGGTCCAGCTTGTTAAGGGTAGTATGTCTAGGGGTATTTTCGGAGTCACCTAGTGCAG | 14000 fluorescence intensity (a.u.) |
| CGTTGGAACGGTATACCGCTACGTAGTTTCCTCTAACACACGGAGTCACCTAGTGCAG | 8230 fluorescence intensity (a.u.) |
| TGTTGTTGACTTTTAAACACATGTTTGATCATTTGTCTTACGGAGTCACCTAGTGCAG | 14600 fluorescence intensity (a.u.) |
| TCTCTCGTTCTCTCTATTTCTCCCTGTTTTCCTGTGTCTTCGGAGTCACCTAGTGCAG | 10100 fluorescence intensity (a.u.) |
| CTCATCCACCCATCCTCATCCTTATCCTCACTCTCTCCTCCGGAGTCACCTAGTGCAG | 9970 fluorescence intensity (a.u.) |

A few values from above.
Entry of CTGAACCATCCGACTCACCACCGGTATTTCTCGGCCATCTCGGAGTCACCTAGTGCAG under binding signal: 8640 fluorescence intensity (a.u.)
Entry of TGCACTCTTGAGCACTCCCAATTTTGTCATTGCCATACAACGGAGTCACCTAGTGCAG under binding signal: 11600 fluorescence intensity (a.u.)

Additional records follow:

| Sequence | binding signal |
| --- | --- |
| CATTATACCTTTATCCCCTTCATTTCTGTTCCATTTCTCACGGAGTCACCTAGTGCAG | 11000 fluorescence intensity (a.u.) |
| CACCTGCATGACGACTTAAATGTTTATGGTGATATCTTCTCGGAGTCACCTAGTGCAG | 8470 fluorescence intensity (a.u.) |
| TCCTCCGACGACAACCAGTCCCGCTTCTTCTTCTCCGTCCCGGAGTCACCTAGTGCAG | 8230 fluorescence intensity (a.u.) |
| CTCCGCTTTATTATACCTGCCGCTAGCTCCTCCTCCGATGCGGAGTCACCTAGTGCAG | 8040 fluorescence intensity (a.u.) |
| CCACTTGCTCTCACTACCGACCACTGCTGATGCTCCTCTTCGGAGTCACCTAGTGCAG | 8940 fluorescence intensity (a.u.) |
| GACGATCACATCACCCGCTCCATTTGCAACGGAGCTCCTTCGGAGTCACCTAGTGCAG | 12500 fluorescence intensity (a.u.) |
| ATCCTAGTTATTTCAAAGGTATATTGCTTGCATTGTTTTGCGGAGTCACCTAGTGCAG | 8240 fluorescence intensity (a.u.) |
| ATCTGCTTTTATGTTTCTCTGCCTTCTTGGCATTTGTAGTCGGAGTCACCTAGTGCAG | 8040 fluorescence intensity (a.u.) |
| GCTGCTTGCACCGTCGGCTTCCTTTCTCGCGCGCTCGCGACGGAGTCACCTAGTGCAG | 11500 fluorescence intensity (a.u.) |
| TCCCACCTCCGAGATCCCCACCTCCACCATTTCTCTTTCTCGGAGTCACCTAGTGCAG | 9890 fluorescence intensity (a.u.) |
| TATACTCACGCTATTTTACCCTTGAAACAGGACCATTCATCGGAGTCACCTAGTGCAG | 9380 fluorescence intensity (a.u.) |
| ATTTACCATTAGACACTGCATATGTCCTATACTACATGTACGGAGTCACCTAGTGCAG | 8430 fluorescence intensity (a.u.) |
| CATTCTCTTCTCAACCAATAACAACTCTTCCACCATTCACCGGAGTCACCTAGTGCAG | 9540 fluorescence intensity (a.u.) |
| TAAACTTGTTTTTTTGGGTGGGGAACTTGGGATCTGAGGGCGGAGTCACCTAGTGCAG | 10900 fluorescence intensity (a.u.) |
| GCTTGCAACGTTTGACCACTCGTCTTATTCAAATTTTTTTCGGAGTCACCTAGTGCAG | 12000 fluorescence intensity (a.u.) |
| TGGCCGGAGCTAGGGTGGGTGGGTGGTTGGCCGCACCACCCGGAGTCACCTAGTGCAG | 8250 fluorescence intensity (a.u.) |
| GGGGCAGTGTCATCTCAGCTAGCCATTTGTTTGGTTCCTACGGAGTCACCTAGTGCAG | 10900 fluorescence intensity (a.u.) |
| AAATAAAAGTTCCTCACACGCACGCCCACGTCAGCGCATCCGGAGTCACCTAGTGCAG | 10300 fluorescence intensity (a.u.) |
| GTCATACATTAGCAGCCGCTGACCCCTGCATTAATAAACCCGGAGTCACCTAGTGCAG | 8480 fluorescence intensity (a.u.) |
| TCCATGTCATCGCCACCGTGTCACCCCTCCACCCAACCGACGGAGTCACCTAGTGCAG | 9500 fluorescence intensity (a.u.) |
| CTGACGACTGGGTCCCACCACTCTTTCCGACCCCACCTGTCGGAGTCACCTAGTGCAG | 8540 fluorescence intensity (a.u.) |
